Reference: PMC11841921
These are yes or no findings as the source states them, for the method shown. Binding seen in cells or lysates may run through a third protein. Some results given as binding are weak or reduced against the parent protein; the word gives no strength.

Sequences of proteins named here, by UniProt entry; tags and fusion partners are left off. A change or cut given only in a name is not applied to a line headed by its entry. Residues count along the entry.
UniProt Q9NR61, residues 27-685: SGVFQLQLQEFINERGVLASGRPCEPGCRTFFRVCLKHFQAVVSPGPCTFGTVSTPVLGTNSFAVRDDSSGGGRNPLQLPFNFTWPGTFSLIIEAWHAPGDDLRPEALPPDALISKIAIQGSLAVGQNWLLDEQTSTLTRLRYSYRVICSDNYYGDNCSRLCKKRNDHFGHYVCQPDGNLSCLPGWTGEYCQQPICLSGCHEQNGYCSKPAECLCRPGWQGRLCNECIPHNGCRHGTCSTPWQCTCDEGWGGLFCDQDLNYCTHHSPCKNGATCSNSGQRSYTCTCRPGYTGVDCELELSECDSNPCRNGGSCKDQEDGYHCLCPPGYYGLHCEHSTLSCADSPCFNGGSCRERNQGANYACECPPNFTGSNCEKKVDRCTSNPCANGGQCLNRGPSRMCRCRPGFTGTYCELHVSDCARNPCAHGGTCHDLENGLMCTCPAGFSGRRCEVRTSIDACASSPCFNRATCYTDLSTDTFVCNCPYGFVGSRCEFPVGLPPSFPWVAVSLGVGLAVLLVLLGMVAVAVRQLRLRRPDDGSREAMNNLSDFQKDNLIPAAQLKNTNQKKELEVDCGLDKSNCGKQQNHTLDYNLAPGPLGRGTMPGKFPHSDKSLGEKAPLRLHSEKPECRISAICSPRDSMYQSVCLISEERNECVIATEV
UniProt P78504: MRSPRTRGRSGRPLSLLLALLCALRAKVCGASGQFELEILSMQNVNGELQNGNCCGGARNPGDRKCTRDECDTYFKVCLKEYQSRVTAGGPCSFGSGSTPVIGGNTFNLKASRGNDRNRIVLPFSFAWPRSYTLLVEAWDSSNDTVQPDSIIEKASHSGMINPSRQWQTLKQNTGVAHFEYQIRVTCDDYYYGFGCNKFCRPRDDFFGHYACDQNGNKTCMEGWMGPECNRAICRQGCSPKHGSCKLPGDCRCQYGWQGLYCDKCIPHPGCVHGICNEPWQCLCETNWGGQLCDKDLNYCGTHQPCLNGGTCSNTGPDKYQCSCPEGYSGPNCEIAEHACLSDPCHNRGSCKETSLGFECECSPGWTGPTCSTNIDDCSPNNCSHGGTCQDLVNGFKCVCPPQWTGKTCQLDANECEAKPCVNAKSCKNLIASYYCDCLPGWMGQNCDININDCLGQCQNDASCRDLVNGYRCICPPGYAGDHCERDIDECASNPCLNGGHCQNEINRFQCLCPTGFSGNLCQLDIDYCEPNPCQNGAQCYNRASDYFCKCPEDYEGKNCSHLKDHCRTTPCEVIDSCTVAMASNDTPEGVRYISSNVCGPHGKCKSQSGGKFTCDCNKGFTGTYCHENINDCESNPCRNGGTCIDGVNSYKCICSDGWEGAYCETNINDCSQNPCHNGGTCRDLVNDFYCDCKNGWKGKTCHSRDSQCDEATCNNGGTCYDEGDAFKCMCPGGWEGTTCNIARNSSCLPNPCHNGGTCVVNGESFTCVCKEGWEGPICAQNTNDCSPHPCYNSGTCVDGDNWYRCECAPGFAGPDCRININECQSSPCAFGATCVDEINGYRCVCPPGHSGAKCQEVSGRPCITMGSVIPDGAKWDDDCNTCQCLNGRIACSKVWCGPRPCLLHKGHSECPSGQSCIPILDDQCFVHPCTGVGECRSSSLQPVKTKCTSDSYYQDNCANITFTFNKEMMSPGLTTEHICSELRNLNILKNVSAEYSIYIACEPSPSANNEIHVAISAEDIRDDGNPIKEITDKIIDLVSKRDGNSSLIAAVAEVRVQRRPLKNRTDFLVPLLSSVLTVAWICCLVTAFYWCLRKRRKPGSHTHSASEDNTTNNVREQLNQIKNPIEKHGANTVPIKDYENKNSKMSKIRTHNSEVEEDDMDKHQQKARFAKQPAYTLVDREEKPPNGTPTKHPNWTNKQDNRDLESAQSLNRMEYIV
UniProt Q9Y219, residues 24-1238: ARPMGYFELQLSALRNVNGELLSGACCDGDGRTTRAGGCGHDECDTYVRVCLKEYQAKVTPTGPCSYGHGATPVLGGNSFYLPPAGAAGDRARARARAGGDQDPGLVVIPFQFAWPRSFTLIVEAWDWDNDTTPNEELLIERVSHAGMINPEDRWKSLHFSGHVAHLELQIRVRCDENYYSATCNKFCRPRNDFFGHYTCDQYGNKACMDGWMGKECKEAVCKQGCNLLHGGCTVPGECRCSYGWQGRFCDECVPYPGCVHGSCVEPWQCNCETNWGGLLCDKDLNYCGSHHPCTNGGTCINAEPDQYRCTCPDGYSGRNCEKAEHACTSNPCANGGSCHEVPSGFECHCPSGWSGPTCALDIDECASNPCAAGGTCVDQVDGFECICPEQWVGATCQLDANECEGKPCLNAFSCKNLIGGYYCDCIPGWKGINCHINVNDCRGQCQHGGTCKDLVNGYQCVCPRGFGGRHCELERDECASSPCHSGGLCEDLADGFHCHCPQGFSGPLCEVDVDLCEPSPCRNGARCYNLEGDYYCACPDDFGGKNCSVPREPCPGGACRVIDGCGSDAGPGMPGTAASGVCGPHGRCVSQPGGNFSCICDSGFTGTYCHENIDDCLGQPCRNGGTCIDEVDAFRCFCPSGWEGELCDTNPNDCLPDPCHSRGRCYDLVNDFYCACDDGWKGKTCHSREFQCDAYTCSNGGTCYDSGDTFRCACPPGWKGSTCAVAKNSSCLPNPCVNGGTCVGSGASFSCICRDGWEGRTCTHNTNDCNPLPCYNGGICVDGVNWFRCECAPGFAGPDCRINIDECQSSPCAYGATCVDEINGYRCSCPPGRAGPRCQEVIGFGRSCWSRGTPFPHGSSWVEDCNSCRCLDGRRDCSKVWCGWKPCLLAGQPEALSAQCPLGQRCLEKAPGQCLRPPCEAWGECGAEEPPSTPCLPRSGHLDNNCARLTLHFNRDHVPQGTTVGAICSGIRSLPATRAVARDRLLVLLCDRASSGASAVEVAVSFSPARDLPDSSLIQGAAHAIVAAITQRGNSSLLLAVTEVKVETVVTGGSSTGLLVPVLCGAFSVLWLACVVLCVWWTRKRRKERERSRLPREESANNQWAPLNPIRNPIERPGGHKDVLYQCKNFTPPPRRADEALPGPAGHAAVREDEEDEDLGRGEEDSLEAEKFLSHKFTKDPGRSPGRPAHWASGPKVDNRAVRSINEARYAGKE
UniProt P46531, residues 19-2555: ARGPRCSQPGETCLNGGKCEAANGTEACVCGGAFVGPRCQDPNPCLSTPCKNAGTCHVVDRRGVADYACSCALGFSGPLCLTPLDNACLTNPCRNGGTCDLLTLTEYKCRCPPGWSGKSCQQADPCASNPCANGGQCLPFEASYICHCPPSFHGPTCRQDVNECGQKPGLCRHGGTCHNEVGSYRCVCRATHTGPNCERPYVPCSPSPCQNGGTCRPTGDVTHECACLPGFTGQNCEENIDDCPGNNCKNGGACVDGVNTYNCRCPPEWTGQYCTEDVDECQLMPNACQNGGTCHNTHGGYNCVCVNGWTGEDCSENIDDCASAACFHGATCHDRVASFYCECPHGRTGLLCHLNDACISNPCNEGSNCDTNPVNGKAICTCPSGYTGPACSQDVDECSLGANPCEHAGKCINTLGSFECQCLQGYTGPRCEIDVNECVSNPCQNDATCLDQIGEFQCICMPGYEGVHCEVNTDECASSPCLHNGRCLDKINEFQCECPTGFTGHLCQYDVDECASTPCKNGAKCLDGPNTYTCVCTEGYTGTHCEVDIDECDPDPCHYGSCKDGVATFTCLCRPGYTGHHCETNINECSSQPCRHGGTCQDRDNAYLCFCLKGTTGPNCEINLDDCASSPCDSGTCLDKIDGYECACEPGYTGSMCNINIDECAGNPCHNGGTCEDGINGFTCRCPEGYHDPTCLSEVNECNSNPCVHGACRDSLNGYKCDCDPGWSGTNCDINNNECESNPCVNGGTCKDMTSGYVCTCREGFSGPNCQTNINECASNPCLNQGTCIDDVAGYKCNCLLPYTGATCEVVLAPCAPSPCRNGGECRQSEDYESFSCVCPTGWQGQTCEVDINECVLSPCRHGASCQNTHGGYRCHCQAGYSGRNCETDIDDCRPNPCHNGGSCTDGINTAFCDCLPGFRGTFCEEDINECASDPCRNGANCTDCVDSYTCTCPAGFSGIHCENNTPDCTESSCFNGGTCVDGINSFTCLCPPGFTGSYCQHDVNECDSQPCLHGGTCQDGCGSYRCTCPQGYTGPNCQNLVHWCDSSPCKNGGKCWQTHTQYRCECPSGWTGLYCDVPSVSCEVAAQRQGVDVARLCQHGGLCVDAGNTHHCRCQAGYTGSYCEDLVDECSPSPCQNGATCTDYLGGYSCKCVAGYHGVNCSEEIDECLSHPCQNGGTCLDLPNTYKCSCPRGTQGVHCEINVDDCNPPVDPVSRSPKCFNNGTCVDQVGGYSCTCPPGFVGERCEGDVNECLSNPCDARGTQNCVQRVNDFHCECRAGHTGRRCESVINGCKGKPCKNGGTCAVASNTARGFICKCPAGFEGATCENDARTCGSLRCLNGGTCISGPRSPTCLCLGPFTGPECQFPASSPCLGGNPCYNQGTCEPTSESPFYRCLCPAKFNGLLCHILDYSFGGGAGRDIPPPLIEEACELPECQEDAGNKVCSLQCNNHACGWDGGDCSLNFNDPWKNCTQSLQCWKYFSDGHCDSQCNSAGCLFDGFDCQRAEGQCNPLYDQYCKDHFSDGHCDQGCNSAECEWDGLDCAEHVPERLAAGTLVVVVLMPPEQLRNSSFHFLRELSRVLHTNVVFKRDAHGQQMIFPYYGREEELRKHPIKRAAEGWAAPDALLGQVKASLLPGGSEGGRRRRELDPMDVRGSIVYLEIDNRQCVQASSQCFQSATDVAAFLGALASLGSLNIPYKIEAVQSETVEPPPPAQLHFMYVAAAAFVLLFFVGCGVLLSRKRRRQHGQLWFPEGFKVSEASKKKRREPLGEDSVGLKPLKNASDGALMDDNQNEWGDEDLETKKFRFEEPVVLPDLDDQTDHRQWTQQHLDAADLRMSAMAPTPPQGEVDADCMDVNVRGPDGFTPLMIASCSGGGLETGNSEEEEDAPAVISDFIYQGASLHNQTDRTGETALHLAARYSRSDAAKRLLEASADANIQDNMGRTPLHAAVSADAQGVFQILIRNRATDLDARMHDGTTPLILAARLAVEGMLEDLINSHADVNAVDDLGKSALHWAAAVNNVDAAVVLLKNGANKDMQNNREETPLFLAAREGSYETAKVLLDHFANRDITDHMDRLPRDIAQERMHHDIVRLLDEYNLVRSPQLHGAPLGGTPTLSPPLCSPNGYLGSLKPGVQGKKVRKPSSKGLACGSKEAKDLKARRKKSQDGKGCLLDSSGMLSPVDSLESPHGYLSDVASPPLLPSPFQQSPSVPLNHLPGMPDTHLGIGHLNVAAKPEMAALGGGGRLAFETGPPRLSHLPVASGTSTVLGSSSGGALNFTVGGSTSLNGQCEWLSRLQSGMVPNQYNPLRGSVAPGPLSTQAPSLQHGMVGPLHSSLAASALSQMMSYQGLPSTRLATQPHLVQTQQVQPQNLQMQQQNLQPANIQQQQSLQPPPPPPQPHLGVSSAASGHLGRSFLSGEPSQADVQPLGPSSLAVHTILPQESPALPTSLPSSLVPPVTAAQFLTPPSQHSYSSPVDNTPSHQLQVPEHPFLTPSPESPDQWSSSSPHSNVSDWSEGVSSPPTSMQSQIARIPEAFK

What was measured:
[1] = molecular target: DLL4, epitope tagged (HIS6 or HA), expressed in 293T cells (UniProt Q9NR61); assay: pull-down; HA and HIS epitope tagged ligand constructs co-transfected into 293T cells; complexes resolved using Nickel-NTA agarose (binds HIS6 tagged ligands); Western blot
[2] = molecular target: DLL4, epitope tagged (HIS6 or HA), expressed in 293T cells (UniProt Q9NR61); assay: pull-down; HIS tagged DLL4 immunopurified from 293T cells on nickel-NTA agarose, incubated with combinations of cell-expressed HA tagged DLL4 and JAG1; Western blot, bands quantified; only the target purified
[3] = molecular target: JAG1, epitope tagged (HIS6 or HA), expressed in 293T cells (UniProt P78504); assay: co-IP; 293T cells co-transfected with HA-tagged JAG1 and HIS6-tagged Notch (in cis); ligand resolved using an anti-HA antibody; Western blot
[4] = molecular target: JAG2, epitope tagged (HIS6 or HA), expressed in 293T cells (UniProt Q9Y219); assay: pull-down; HA and HIS epitope tagged ligand constructs co-transfected into 293T cells; complexes resolved using Nickel-NTA agarose (binds HIS6 tagged ligands); Western blot
[5] = molecular target: HA epitope tagged Notch2, stably expressed on 293T cells (UniProt Q04721); assay: cross-linking + co-IP; cell surface ligand/receptor binding assay: 293T cells stably expressing HA-tagged Notch receptor incubated with 50 μL of HIS tagged ligand (0.5 mg/ml) in 1.5 mls PBS/BSA, 1 hour, 4 °C; cross-linked with DSS and BS3; lysed; immunoprecipitated with anti-HA; Western blot anti-HIS; only the binder purified
[6] = molecular target: HA epitope tagged Notch3, stably expressed on 293T cells (UniProt Q9UM47); assay: as above

| binding [1] | binding [2] | Substance | also measured |
| --- | --- | --- | --- |
| binds | binds | DLL4, epitope tagged (HIS6 or HA), expressed in 293T cells (from UniProt Q9NR61 27-685) (ligand) |  |
|  |  | HIS6 epitope-tagged Notch (Notch1), co-transfected in 293T cells (from UniProt P46531 19-2555) (receptor) | binding [3]: binds |
| binds | binds | JAG1, epitope tagged (HIS6 or HA), expressed in 293T cells (from UniProt P78504 34-1218) (ligand) |  |
|  |  | JAG2, epitope tagged (HIS6 or HA), expressed in 293T cells (from UniProt Q9Y219 24-1238) (ligand) | binding [4]: binds |
|  |  | Recombinant human JAG1 protein, HIS epitope tagged (from UniProt P78504 34-1067) (ligand) | binding [5]: binds; binding [6]: binds |
